{"source": "the supplement of paper PMC8728848", "binders": {"B1": {"name": "SynCAM (Mus musculus) (protein)", "chain": "MASAVLPSGSQCAAAAAVAAAAAPPGLRLRLLLLLLSAAALIPTGDGQNLFTKDVTVIEGEVATISCQVNKSDDSVIQLLNPNRQTIYFRDFRPLKDSRFQLLNFSSSELKVSLTNVSISDEGRYFCQLYTDPPQESYTTITVLVPPRNLMIDIQKDTAVEGEEIEVNCTAMASKPATTIRWFKGNKELKGKSEVEEWSDMYTVTSQLMLKVHKEDDGVPVICQVEHPAVTGNLQTQRYLEVQYKPQVHIQMTYPLQGLTREGDAFELTCEAIGKPQPVMVTWVRVDDEMPQHAVLSGPNLFINNLNKTDNGTYRCEASNIVGKAHSDYMLYVYDPPTTIPPP"}}, "test_in_all_cases": "glycan array binding signal (z-score within array); higher = stronger binding", "settings_in_all_cases": "glycan notation: IUPAC condensed, linker removed", "key": {"Fuc(a1-2)Gal": {"target": "Fuc(a1-2)Gal", "procedure,_shortened": "(§1)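 From the Consortium for Functional Glycomics database, 3228 arrays were curated, keeping only those whose protein sequence was available. Binding is given as a within-array Z-score averaged across arrays sharing a protein sequence and across linkers. Negative Z-scores can be read as non-binding.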"}, "Fuc(a1-2)Gal(b1-3)GalNAc": {"target": "Fuc(a1-2)Gal(b1-3)GalNAc", "procedure,_shortened": "as §1"}, "[1]": {"target": "Fuc(a1-2)Gal(b1-3)GalNAc(a1-3)[Fuc(a1-2)]Gal(b1-4)Glc", "procedure,_shortened": "as §1"}, "[2]": {"target": "Fuc(a1-2)Gal(b1-3)GalNAc(a1-3)[Fuc(a1-2)]Gal(b1-4)GlcNAc", "procedure,_shortened": "as §1"}, "[3]": {"target": "Fuc(a1-2)Gal(b1-3)GalNAc(b1-3)Gal", "procedure,_shortened": "as §1"}, "[4]": {"target": "Fuc(a1-2)Gal(b1-3)GalNAc(b1-3)Gal(a1-4)Gal(b1-4)Glc", "procedure,_shortened": "as §1"}, "[5]": {"target": "Fuc(a1-2)Gal(b1-3)GalNAc(b1-4)[Neu5Ac(a2-3)]Gal(b1-4)Glc", "procedure,_shortened": "as §1"}, "Fuc(a1-2)Gal(b1-3)GlcNAc": {"target": "Fuc(a1-2)Gal(b1-3)GlcNAc", "procedure,_shortened": "as §1"}, "[6]": {"target": "Fuc(a1-2)Gal(b1-3)GlcNAc(b1-2)Man(a1-3)[Fuc(a1-2)Gal(b1-3)GlcNAc(b1-2)Man(a1-6)]Man(b1-4)GlcNAc(b1-4)GlcNAc", "procedure,_shortened": "as §1"}, "[7]": {"target": "Fuc(a1-2)Gal(b1-3)GlcNAc(b1-2)Man(a1-3)[Fuc(a1-2)Gal(b1-3)GlcNAc(b1-2)Man(a1-6)]Man(b1-4)GlcNAc(b1-4)[Fuc(a1-6)]GlcNAc", "procedure,_shortened": "as §1"}, "[8]": {"target": "Fuc(a1-2)Gal(b1-3)GlcNAc(b1-3)Gal(b1-4)Glc", "procedure,_shortened": "as §1"}, "[9]": {"target": "Fuc(a1-2)Gal(b1-3)GlcNAc(b1-3)GalNAc", "procedure,_shortened": "as §1"}, "[10]": {"target": "Fuc(a1-2)Gal(b1-3)GlcNAc(b1-3)[Fuc(a1-2)Gal(b1-3)GlcNAc(b1-6)]GalNAc", "procedure,_shortened": "as §1"}, "[11]": {"target": "Fuc(a1-2)Gal(b1-3)GlcNAc(b1-3)[Gal(b1-4)GlcNAc(b1-6)]Gal(b1-4)Glc", "procedure,_shortened": "as §1"}, "[12]": {"target": "Fuc(a1-2)Gal(b1-3)GlcNAc(b1-3)[Neu5Ac(a2-6)Gal(b1-4)GlcNAc(b1-6)]Gal(b1-4)Glc", "procedure,_shortened": "as §1"}, "[13]": {"target": "Fuc(a1-2)Gal(b1-3)GlcNAc6S", "procedure,_shortened": "as §1"}, "[14]": {"target": "Fuc(a1-2)Gal(b1-3)[Fuc(a1-4)]GlcNAc", "procedure,_shortened": "as §1"}, "[15]": {"target": "Fuc(a1-2)Gal(b1-3)[Fuc(a1-4)]GlcNAc(b1-2)Man(a1-3)[Fuc(a1-2)Gal(b1-3)[Fuc(a1-4)]GlcNAc(b1-2)Man(a1-3)]Man(b1-4)GlcNAc(b1-4)GlcNAc", "procedure,_shortened": "as §1"}, "[16]": {"target": "Fuc(a1-2)Gal(b1-3)[Fuc(a1-4)]GlcNAc(b1-2)Man(a1-3)[Fuc(a1-2)Gal(b1-3)[Fuc(a1-4)]GlcNAc(b1-2)Man(a1-6)]Man(b1-4)GlcNAc(b1-4)[Fuc(a1-6)]GlcNAc(b1-4)[Fuc(a1-6)]GlcNAc", "procedure,_shortened": "as §1"}, "[17]": {"target": "Fuc(a1-2)Gal(b1-3)[Fuc(a1-4)]GlcNAc(b1-3)[Fuc(a1-3)[Gal(b1-4)]GlcNAc(b1-6)]Gal(b1-4)Glc", "procedure,_shortened": "as §1"}, "[18]": {"target": "Fuc(a1-2)Gal(b1-3)[Fuc(a1-4)]GlcNAc(b1-3)[Gal(b1-4)GlcNAc(b1-6)]Gal(b1-4)Glc", "procedure,_shortened": "as §1"}, "Fuc(a1-2)Gal(b1-4)Glc": {"target": "Fuc(a1-2)Gal(b1-4)Glc", "procedure,_shortened": "as §1"}, "Fuc(a1-2)Gal(b1-4)Glc6S": {"target": "Fuc(a1-2)Gal(b1-4)Glc6S", "procedure,_shortened": "as §1"}, "Fuc(a1-2)Gal(b1-4)GlcNAc": {"target": "Fuc(a1-2)Gal(b1-4)GlcNAc", "procedure,_shortened": "as §1"}, "[19]": {"target": "Fuc(a1-2)Gal(b1-4)GlcNAc(b1-2)Man", "procedure,_shortened": "as §1"}, "[20]": {"target": "Fuc(a1-2)Gal(b1-4)GlcNAc(b1-2)Man(a1-3)[Fuc(a1-2)Gal(b1-4)GlcNAc(b1-2)Man(a1-6)]Man(b1-4)GlcNAc(b1-4)GlcNAc", "procedure,_shortened": "as §1"}, "[21]": {"target": "Fuc(a1-2)Gal(b1-4)GlcNAc(b1-2)Man(a1-3)[Fuc(a1-2)Gal(b1-4)GlcNAc(b1-2)Man(a1-6)]Man(b1-4)GlcNAc(b1-4)[Fuc(a1-6)]GlcNAc", "procedure,_shortened": "as §1"}, "[22]": {"target": "Fuc(a1-2)Gal(b1-4)GlcNAc(b1-2)[Fuc(a1-2)Gal(b1-4)GlcNAc(b1-4)]Man(a1-3)[Fuc(a1-2)Gal(b1-4)GlcNAc(b1-2)Man(a1-6)]Man(b1-4)GlcNAc(b1-4)GlcNAc", "procedure,_shortened": "as §1"}, "[23]": {"target": "Fuc(a1-2)Gal(b1-4)GlcNAc(b1-3)Gal(b1-4)GlcNAc", "procedure,_shortened": "as §1"}, "[24]": {"target": "Fuc(a1-2)Gal(b1-4)GlcNAc(b1-3)Gal(b1-4)GlcNAc(b1-2)Man(a1-3)[Fuc(a1-2)Gal(b1-4)GlcNAc(b1-3)Gal(b1-4)GlcNAc(b1-2)Man(a1-6)]Man(b1-4)GlcNAc(b1-4)GlcNAc", "procedure,_shortened": "as §1"}}, "note": "The list shows a part of the results.", "data": [{"binder": "B1", "values": [{"measurement": "glycan array binding signal (z-score)", "setting": "Fuc(a1-2)Gal", "value": -0.509}, {"measurement": "glycan array binding signal (z-score)", "setting": "Fuc(a1-2)Gal(b1-3)GalNAc", "value": -0.21}, {"measurement": "glycan array binding signal (z-score)", "setting": "[1]", "value": -0.767}, {"measurement": "glycan array binding signal (z-score)", "setting": "[2]", "value": 2.15}, {"measurement": "glycan array binding signal (z-score)", "setting": "[3]", "value": 0.178}, {"measurement": "glycan array binding signal (z-score)", "setting": "[4]", "value": -0.683}, {"measurement": "glycan array binding signal (z-score)", "setting": "[5]", "value": -0.661}, {"measurement": "glycan array binding signal (z-score)", "setting": "Fuc(a1-2)Gal(b1-3)GlcNAc", "value": 0.326}, {"measurement": "glycan array binding signal (z-score)", "setting": "[6]", "value": -0.104}, {"measurement": "glycan array binding signal (z-score)", "setting": "[7]", "value": 1.96}, {"measurement": "glycan array binding signal (z-score)", "setting": "[8]", "value": -0.729}, {"measurement": "glycan array binding signal (z-score)", "setting": "[9]", "value": 0.316}, {"measurement": "glycan array binding signal (z-score)", "setting": "[10]", "value": -0.296}, {"measurement": "glycan array binding signal (z-score)", "setting": "[11]", "value": -0.622}, {"measurement": "glycan array binding signal (z-score)", "setting": "[12]", "value": 0.679}, {"measurement": "glycan array binding signal (z-score)", "setting": "[13]", "value": 2.22}, {"measurement": "glycan array binding signal (z-score)", "setting": "[14]", "value": 0.054}, {"measurement": "glycan array binding signal (z-score)", "setting": "[15]", "value": 1.84}, {"measurement": "glycan array binding signal (z-score)", "setting": "[16]", "value": -0.316}, {"measurement": "glycan array binding signal (z-score)", "setting": "[17]", "value": -0.545}, {"measurement": "glycan array binding signal (z-score)", "setting": "[18]", "value": 0.218}, {"measurement": "glycan array binding signal (z-score)", "setting": "Fuc(a1-2)Gal(b1-4)Glc", "value": -0.425}, {"measurement": "glycan array binding signal (z-score)", "setting": "Fuc(a1-2)Gal(b1-4)Glc6S", "value": 0.624}, {"measurement": "glycan array binding signal (z-score)", "setting": "Fuc(a1-2)Gal(b1-4)GlcNAc", "value": 0.404}, {"measurement": "glycan array binding signal (z-score)", "setting": "[19]", "value": -0.179}, {"measurement": "glycan array binding signal (z-score)", "setting": "[20]", "value": -0.471}, {"measurement": "glycan array binding signal (z-score)", "setting": "[21]", "value": 1.14}, {"measurement": "glycan array binding signal (z-score)", "setting": "[22]", "value": 1.31}, {"measurement": "glycan array binding signal (z-score)", "setting": "[23]", "value": -0.175}, {"measurement": "glycan array binding signal (z-score)", "setting": "[24]", "value": 0.696}]}]}
